From patent US20080292632A1 (US Dept. of Health and Human Services, published 2008)
These are yes or no findings as the source states them, for the method shown. Some binding calls cover weakened binding; strength is not graded here. For some of these results: Sequences can lack the tags named with a protein.

Assays:
Test in all cases: IRTA2 domain Fc-fusion
IRTA2 1-8-RFc (human) = molecular target: T1, IRTA2 1-8-RFc (human) (UniProt Q96RD9)
T1 sequence (looked up): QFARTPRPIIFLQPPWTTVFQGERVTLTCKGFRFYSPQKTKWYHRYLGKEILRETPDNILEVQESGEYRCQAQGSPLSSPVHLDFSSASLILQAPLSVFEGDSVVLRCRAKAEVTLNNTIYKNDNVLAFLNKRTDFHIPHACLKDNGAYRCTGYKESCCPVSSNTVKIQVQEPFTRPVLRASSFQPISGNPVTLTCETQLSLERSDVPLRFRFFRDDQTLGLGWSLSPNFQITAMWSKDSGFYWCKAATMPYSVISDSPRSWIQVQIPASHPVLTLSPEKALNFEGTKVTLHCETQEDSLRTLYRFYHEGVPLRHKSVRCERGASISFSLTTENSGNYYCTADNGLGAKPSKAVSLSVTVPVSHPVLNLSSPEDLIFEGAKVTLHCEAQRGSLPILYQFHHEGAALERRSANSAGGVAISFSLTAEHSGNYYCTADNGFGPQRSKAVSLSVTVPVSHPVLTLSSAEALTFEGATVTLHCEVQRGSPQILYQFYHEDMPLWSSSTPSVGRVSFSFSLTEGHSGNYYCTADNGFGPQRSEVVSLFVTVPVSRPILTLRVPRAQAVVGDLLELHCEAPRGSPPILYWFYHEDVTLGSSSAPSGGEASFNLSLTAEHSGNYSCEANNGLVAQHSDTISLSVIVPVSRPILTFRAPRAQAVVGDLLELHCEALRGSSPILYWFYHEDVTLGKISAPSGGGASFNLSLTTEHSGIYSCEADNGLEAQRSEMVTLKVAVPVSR

[1] = molecular target: T2, IRTA2 ED1-8 Fc-fusion (human) (UniProt Q96RD9)
T2 sequence (looked up): T1 sequence (looked up)

[2] = molecular target: T3, IRTA2 ED1 Fc-fusion (human) (UniProt Q96RD9)
T3 sequence (looked up): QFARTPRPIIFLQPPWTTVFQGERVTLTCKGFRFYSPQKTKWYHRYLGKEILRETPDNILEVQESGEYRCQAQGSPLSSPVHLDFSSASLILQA

[3] = molecular target: T4, IRTA2 ED1-2 Fc-fusion (human) (UniProt Q96RD9)
T4 sequence (looked up): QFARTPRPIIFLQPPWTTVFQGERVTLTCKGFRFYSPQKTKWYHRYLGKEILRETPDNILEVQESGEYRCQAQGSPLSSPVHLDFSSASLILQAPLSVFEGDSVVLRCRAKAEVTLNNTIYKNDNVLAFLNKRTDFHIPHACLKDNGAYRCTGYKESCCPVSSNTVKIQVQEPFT

Measured: binding

B1: F25 (antibody, IgG2a, V domains shown)
VH: EVQLQQSGPELVKPGTSVKMSCKASGYSFTGYFMNWMMQNHGKSLEWIGRINLYNGDTFYNQKFKDKATLTVDKSSNTVHMEFRSLASEDSAVYYCASSLYYFDYWGQGTTFTVSS
VL: DIVMTQSHKFMSTSVGDRVNITCKASQDVGTNVAWYQQKPGQSPKLLIYWASTRQTGVPDRFTGSGSGTDFTLTISNVQSEDLSDYFCQQYSSYPLTFGAGTKLELKR
notes: mouse hybridoma MAb, IgG2a, kappa; also called MAb F25; biotin-MAb F25
binds: all assays above
